Laboratory results as given in patent US5905089A, “Use of sesquiterpene lactones for treatment of severe inflammatory disorders” (Board of Supervisors of Louisiana State University and …, priority 1998, dated 1999).
Some entries share one result that the patent states for a list of compounds. For at least one compound, name, drawing or mass did not settle the structure. Some ranges recur; such a range may be that of the whole group of compounds.

Tested on: COX-2
Experiment: Inhibition of the expression of COX-2 in LPS-stimulated macrophages (Table 1)
Assay type: cell-based
Details: comparison among tested compounds
Method: Rat (Sprague-Dawley) alveolar macrophages were collected by broncho-alveolar lavage as described by Lee et al., J. Biol. Chem., vol.
Alveolar macrophages pretreated with aspirin were incubated with LPS (10 μg/ml) and various concentrations of parthenolide for 16h. The activity of de novo synthesized COX-2 was determined by measuring the levels of PGE2 produced from exogenous arachidonic acid. Activity of TNFα was determined by bioassay using L929 cells as described by Aggarwal et al., J. Biol. Chem., vol. […] Values in FIG. 2 are the means of triplicate samples for TNFα and duplicate samples for PGE2.

Structure (SMILES) | inhibitory activity (COX-2 expression), in words
C=C1C(=O)O[C@@H]2[C@H]1CC[C@H](C)[C@]1(CCC(=O)O1)[C@@]2(C)O [Compound 8, Psilostachyin A] | lower than that of compounds 1-5
C=C1C(=O)O[C@@H]2/C=C(\C)CC/C=C(\C)CC[C@@H]12 [Compound 9, Costunolide] | lower than that of compounds 1-5
